# In article doi:10.1101/2021.12.08.471779:
# Protein sequences, listed by entry. Tags and fused reporters are not part of them. Lines headed by an entry give the natural chain unless they say otherwise; changes in a name come on top.
# UniProt P05825: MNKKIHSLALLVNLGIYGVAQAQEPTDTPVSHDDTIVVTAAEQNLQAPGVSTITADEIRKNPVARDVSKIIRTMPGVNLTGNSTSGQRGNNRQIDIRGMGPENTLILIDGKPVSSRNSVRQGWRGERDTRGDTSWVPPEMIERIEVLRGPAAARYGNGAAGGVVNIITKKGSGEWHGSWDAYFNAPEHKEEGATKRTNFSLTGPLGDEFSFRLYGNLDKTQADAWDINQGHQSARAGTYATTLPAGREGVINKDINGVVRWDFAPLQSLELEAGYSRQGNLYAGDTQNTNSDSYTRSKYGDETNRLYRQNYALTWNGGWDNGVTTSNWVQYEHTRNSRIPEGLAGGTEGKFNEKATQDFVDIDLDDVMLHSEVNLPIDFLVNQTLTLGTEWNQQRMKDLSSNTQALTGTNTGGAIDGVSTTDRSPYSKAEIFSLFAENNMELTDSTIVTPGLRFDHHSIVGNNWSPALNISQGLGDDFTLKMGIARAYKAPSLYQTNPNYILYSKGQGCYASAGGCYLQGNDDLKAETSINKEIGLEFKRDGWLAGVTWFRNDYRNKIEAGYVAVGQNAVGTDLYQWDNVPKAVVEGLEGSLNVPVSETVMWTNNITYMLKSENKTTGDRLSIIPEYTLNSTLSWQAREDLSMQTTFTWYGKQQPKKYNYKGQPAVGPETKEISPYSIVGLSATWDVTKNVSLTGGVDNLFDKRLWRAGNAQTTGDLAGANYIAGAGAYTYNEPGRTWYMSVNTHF
# UniProt P02929: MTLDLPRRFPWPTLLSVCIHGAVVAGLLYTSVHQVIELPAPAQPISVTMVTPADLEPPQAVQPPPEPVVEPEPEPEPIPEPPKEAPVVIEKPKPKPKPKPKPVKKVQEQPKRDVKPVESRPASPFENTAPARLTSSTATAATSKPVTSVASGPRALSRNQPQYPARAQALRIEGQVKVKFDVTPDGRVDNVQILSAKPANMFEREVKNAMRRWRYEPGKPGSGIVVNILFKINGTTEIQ
# These are yes or no findings as the source states them, for the method shown. In cells and extracts the contact can be indirect. Binding calls can cover weak binding; strength is not graded here.
# What was measured:
# Assay in all cases: cross-linking
# [1] = biological target: FepA D455C (Escherichia coli K-12) (UniProt P05825)
# [2] = biological target: FepA D422C (Escherichia coli K-12) (UniProt P05825)
# [3] = biological target: FepA D34C (Escherichia coli K-12) (UniProt P05825)
Substance,binding [1],binding [2],binding [3]
TonB C18G H20A N208C (from UniProt P02929 1-239),,binds,
TonB C18G R204C (from UniProt P02929 1-239),,binds,binds
TonB C18G R212C (from UniProt P02929 1-239),binds,binds,
TonB C18G V206C (from UniProt P02929 1-239),no binding,no binding,no binding

# Further lines, results first:
binding [1],binding [2],binding [3],Substance
no binding,no binding,no binding,TonB C18G A209C (from UniProt P02929 1-239)
,binds,,TonB C18G H20A R204C (from UniProt P02929 1-239)
binds,,,TonB C18G H20A R212C (from UniProt P02929 1-239)
,binds,,TonB C18G N208C (from UniProt P02929 1-239)
no binding,no binding,,TonB C18G Q160C (from UniProt P02929 1-239)
